This is an account of results in article PMC8253596.

The assay addresses RDV major outer capsid protein P8, bait fusion from pGBKT7-P8 (Rice dwarf virus). In words: two-hybrid; Matchmaker Gold Yeast Two-hybrid system; prey in pGADT7, bait in pGBKT7, co-transformed into yeast AH109; growth and colour on SD/-Ade-His-Leu-Trp/X-alpha-Gal.

Results are given in words; binding and its absence hold for the method and conditions named. Where a sequence is shown, tags or fusion partners need not be part of it.

B1: N. cincticeps Rab5, prey fusion from pGADT7-Rab5 (protein, UniProt A0A8F5HV83 1-214)
chain: MANRGGAQRPNGTPQGKICQFKLVLLGESAVGKSSLVLRFVKGQFHEYQESTIGAAFLTQTVCLDDMTVKFEIWDTAGQERYHSLAPMYYRGAQAAIVVYDITNPDTFGRAKTWVKELQRQASPNIVIALAGNKADLANKRSVEFDEAQAYAHENGLLFMETSAKTAMNVNDIFLAIAKKLPKNEQAGGGGSSGQGRRLVESEATTKAPGSCCK
B1: the binding result was “no binding”.
